Results: patent US6875844B1, “Peptide compounds derived from a shifted ORF of the iCE gene” (Institut Gustave Roussy, priority 1999, dated 2005)
No constants are given. Whether binding was seen depends on the method and setting. Some results given as binding are weak or reduced against the parent protein; the word gives no strength.

Key:
[1] = biological target: HLA-B*0702 on transfected T2 cells (human) (UniProt P01889); assay: T2 cells transfected with HLA-B*0702
[2] = biological target: HLA-B*0702 on transfected T2 cells (human) (UniProt P01889); assay: immunofluorescence binding assay on transfected T2 cells
[3] = biological target: HLA-B*0702 on transfected T2 cells (human) (UniProt P01889); assay: HLA-B7 expression on T2 cells transfected with HLA-B*0702, flow cytometry with anti-HLA-B7 mAb HB59

binding [1]: binds
binding [2]: binds
binding [3]: binds
B1: iCE peptide … (nonamer encoded by the +1 alternative ORF of the intestinal carboxylesterase gene) (peptide)
peptide: SPRWWPTCL
